Assay results as given in doi:10.1101/2023.11.28.568893.
These are yes or no findings as the source states them, for the method shown. In cells and extracts the contact can be indirect. Some entries that bind do so weakly or less than the wild type.

Protein sequences, listed by entry. Tags and fused reporters are not part of them. Residues count along the entry.
UniProt Q8VC19, residues 57-642: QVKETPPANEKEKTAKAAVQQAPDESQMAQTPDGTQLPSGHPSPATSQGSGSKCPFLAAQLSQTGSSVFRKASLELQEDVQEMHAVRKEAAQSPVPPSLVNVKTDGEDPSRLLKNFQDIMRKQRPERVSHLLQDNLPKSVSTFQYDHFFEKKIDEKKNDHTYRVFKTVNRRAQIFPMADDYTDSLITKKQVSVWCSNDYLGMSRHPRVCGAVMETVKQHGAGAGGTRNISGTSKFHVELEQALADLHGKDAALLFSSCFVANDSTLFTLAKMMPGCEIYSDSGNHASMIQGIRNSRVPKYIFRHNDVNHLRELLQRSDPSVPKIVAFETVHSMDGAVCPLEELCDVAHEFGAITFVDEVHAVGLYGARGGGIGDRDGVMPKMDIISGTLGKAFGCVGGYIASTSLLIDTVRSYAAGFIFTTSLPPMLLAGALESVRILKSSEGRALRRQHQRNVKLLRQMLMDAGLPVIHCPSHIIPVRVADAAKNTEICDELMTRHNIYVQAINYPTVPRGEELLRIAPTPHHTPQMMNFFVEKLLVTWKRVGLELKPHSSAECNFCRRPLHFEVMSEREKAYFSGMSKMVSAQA

Target: T1, Propionyl-CoA carboxylase (PCCA) (mouse (endogenous in brown adipocytes)) (UniProt Q91ZA3)
T1 sequence: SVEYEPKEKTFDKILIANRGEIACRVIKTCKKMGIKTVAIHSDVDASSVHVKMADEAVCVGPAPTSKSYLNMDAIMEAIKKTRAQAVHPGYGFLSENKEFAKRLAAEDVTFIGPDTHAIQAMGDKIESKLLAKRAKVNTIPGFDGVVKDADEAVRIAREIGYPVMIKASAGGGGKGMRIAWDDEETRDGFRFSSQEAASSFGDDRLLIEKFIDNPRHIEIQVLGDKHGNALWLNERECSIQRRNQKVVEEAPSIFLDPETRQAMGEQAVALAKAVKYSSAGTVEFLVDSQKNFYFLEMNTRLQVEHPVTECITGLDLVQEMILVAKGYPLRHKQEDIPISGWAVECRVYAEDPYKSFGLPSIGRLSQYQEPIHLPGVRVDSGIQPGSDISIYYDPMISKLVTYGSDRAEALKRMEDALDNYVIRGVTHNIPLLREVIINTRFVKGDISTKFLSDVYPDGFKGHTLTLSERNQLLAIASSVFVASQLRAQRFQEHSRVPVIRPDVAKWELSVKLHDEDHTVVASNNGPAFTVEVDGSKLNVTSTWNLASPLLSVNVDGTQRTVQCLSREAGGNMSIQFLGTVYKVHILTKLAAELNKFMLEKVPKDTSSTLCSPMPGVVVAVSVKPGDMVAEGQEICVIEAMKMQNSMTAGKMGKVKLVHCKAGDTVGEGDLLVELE
Experiment: proximity ligation

Which binding does the source give for “Aminolaevulinic Acid Synthase 1 (ALAS1) (from UniProt Q8VC19 57-642) (enzyme)” here?
Its binding is “binds”.
